Activity calls are given as the source filed them.
Assays:
[1] = molecular target: RAC-alpha serine/threonine-protein kinase (Homo sapiens) (UniProt P31749); assay: Inhibition of AKT1 at 10 uM by luciferase assay
Summary of the method: (§1)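 Cell-free split-firefly-luciferase competitive binding assay: Cfluc-kinase fusion mRNA co-translated with Fos-Nfluc mRNA in rabbit reticulocyte lysate, 30 °C for 90 min, then frozen at −80 °C and thawed on ice. Lysate given active-site probe (120 nM final) and inhibitor at 10 μM final in DMSO, 1 h at room temperature. Luminescence read after luciferin reagent, in duplicate. Percent inhibition = 1 − (background-subtracted signal ÷ DMSO positive control).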

Protein sequences, listed by entry. Tags and fused reporters are not part of them. Lines headed by an entry give the natural chain unless they say otherwise; changes in a name come on top.
UniProt P31749: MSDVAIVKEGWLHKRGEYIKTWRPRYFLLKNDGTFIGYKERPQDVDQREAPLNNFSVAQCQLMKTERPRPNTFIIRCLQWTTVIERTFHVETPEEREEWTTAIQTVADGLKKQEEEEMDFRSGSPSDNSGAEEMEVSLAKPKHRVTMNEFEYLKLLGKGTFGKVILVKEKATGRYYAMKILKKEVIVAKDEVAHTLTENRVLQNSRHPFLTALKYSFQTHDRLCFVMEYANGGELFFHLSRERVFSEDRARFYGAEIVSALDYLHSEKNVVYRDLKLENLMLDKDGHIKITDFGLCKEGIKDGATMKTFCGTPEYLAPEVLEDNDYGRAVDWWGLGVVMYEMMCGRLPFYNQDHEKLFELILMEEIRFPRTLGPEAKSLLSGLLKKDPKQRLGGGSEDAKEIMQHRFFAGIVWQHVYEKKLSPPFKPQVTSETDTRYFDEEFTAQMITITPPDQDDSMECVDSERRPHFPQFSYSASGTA
UniProt P31751: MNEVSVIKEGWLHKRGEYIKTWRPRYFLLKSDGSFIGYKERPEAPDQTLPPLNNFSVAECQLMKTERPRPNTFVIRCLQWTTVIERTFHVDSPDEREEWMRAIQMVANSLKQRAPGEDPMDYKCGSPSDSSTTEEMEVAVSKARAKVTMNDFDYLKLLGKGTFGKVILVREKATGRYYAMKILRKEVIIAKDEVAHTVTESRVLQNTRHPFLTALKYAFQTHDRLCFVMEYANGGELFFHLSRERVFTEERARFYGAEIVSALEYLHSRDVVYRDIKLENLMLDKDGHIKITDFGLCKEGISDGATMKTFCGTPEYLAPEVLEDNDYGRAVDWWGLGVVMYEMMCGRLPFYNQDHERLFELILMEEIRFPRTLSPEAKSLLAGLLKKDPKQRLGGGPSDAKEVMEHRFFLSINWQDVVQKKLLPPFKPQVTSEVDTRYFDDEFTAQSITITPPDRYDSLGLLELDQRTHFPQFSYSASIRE
UniProt Q9Y243: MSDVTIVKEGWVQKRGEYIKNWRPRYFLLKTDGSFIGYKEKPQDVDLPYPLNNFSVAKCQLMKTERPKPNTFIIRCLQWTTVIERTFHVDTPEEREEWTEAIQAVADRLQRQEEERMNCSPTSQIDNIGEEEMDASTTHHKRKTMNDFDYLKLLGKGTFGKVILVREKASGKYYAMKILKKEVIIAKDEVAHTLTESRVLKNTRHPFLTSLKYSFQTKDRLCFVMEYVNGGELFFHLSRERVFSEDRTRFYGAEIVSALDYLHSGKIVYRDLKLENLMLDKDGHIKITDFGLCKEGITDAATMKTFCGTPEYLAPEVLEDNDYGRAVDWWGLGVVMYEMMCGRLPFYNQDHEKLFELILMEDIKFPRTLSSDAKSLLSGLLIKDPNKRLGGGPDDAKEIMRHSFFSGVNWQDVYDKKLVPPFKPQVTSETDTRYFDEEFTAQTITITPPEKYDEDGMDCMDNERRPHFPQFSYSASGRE
UniProt Q05655: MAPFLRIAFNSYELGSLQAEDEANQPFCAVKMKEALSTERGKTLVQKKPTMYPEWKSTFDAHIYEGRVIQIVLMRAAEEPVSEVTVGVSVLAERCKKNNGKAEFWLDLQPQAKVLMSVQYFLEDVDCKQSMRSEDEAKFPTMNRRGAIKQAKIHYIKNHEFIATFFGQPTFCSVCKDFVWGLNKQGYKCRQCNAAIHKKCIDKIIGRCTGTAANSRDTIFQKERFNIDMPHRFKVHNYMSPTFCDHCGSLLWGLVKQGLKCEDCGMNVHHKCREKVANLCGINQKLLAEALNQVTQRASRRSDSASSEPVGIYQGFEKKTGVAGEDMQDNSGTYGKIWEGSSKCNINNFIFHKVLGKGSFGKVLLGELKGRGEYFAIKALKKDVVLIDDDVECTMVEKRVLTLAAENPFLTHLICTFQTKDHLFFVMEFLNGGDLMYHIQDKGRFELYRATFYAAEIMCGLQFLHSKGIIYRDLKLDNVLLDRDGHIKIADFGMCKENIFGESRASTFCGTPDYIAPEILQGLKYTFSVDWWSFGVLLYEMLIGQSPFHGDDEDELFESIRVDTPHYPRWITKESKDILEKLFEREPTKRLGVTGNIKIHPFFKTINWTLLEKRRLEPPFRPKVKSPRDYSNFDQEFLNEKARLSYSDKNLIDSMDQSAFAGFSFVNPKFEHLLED

[2] = molecular target: RAC-beta serine/threonine-protein kinase (Homo sapiens) (UniProt P31751); assay: Inhibition of AKT2 at 10 uM by luciferase assay; summary of the method: as §1
[3] = molecular target: RAC-gamma serine/threonine-protein kinase (Homo sapiens) (UniProt Q9Y243); assay: Inhibition of AKT3 at 10 uM by luciferase assay; summary of the method: as §1
[4] = molecular target: Protein kinase C delta type (Homo sapiens) (UniProt Q05655); assay: Inhibition of Protein kinase C delta type at 10 uM by luciferase assay; summary of the method: as §1
[5] = molecular target: T1, Protein kinase C epsilon type (Homo sapiens) (UniProt Q02156); assay: Inhibition of Protein kinase C epsilon type at 10 uM by luciferase assay; summary of the method: as §1
T1 sequence (whole entry): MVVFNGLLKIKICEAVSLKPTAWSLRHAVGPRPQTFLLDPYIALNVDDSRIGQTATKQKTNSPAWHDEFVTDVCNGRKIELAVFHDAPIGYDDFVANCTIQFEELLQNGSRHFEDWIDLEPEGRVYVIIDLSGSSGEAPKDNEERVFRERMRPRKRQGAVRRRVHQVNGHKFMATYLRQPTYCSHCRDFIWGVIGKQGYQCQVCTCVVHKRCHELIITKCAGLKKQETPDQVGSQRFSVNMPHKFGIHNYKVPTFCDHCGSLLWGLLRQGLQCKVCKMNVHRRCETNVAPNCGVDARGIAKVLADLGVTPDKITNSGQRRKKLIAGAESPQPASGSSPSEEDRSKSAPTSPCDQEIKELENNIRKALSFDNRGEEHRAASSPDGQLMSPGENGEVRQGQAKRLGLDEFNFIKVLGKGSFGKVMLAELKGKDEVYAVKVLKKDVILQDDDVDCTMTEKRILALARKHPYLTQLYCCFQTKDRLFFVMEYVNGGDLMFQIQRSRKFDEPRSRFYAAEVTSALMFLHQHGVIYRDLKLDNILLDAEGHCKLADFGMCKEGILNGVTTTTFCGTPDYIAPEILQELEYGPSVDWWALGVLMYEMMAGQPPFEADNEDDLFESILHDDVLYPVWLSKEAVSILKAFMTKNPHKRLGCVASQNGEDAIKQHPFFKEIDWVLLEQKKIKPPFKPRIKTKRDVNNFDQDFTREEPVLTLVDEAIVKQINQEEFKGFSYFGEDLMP

[6] = molecular target: Protein kinase C gamma type (Homo sapiens) (UniProt P05129); assay: Inhibition of Protein kinase C gamma type at 10 uM by luciferase assay; summary of the method: as §1

Measured: inhibition

O=C1NC(=O)c2c1c(-c1ccccc1)cc1[nH]c3ccc(O)cc3c21
inactive: all assays above

From ChEMBL document CHEMBL2086354, “Testing the promiscuity of commercial kinase inhibitors against the AGC kinase group using a split-luciferase screen” (J Med Chem, 2012)
